PubChem BioAssay AID1347076 (National Center for Advancing Translational Sciences (NCATS), 2019)
Among all 400,000 compounds or so, about 13,000 (3.2%) were called active. This list was built around the results that the source calls inconclusive (neither active nor inactive); the mix of calls is not that of the screen. Calls follow the shape of the dose curve; as a rule, active = well fitted cell-killing curve with a large enough effect; inconclusive = small, poorly fitted or top-dose-only effect, or effect the other way; inactive = flat fitted curve, though single readings scatter. A potency beside an inconclusive call is a rough fit, not a confirmed value.

assay: qHTS assay for MDR1-selective chemotherapeutics: Primary screen using the drug-selected MDR subline cells KB-V1; details: KB-V1 MDR cells viability, CellTiter-Glo, 72 h; activity change, negative = cytotoxicity: at 46.1 µM (top of the series); also: nearly all actives have a fitted effect of over 60% in size
Procedure, shortened: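 Cells of the MDR subline KB-V1 are plated, dosed with compound at multiple concentrations, and incubated 72 h at 37 degrees C; CellTiter-Glo is then added and luminescence read after 10 min.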
% is scaled to controls: 0 for no effect and ±100 for the full control effect; potency is read from the fitted curve at half-maximal effect.

SMILES	Potency	activity change, negative = cytotoxicity
COc1ccccc1C(=O)NNC1=C(C(=O)C(F)(F)F)CCC1	inactive	–
Cc1ccc(C)c(C(=O)CN2C3=NCCCN3c3ccccc32)c1	inactive	–
COc1ccc(NS(=O)(=O)c2cccc(C(=O)Nc3ccccc3C(=O)O)c2)cc1	inconclusive: 23.1 µM [rising, single point]	–
O=C(COc1ccccc1Cl)Nc1ccc(OCc2cc(=O)n3ccsc3n2)cc1	inconclusive: 29.1 µM [rising, single point]	–
COC(=O)C1C(=O)C(C(=O)c2ccc([N+](=O)[O-])cc2)C(=O)CC1(C)C (stereo not given)	inconclusive: 13 µM [rising, partial curve]	–
O=S(=O)(c1ccc2ccccc2c1)N1CCCCCC1	inactive	–
C[C@@H]1C[C@H](Nc2ccccc2)c2ccccc2N1C(=O)c1cccnc1	inconclusive: 16.4 µM [cytotoxic, partial curve, poor fit]	–
O=C(N/N=C/c1ccc(Br)o1)c1ccc2c(c1)OCCO2	inconclusive: 0.58 µM [rising, full curve]	–
CSCCC1NC(=O)C(C(C)=NNC(N)=O)=C1O (stereo not given)	inactive	–
CC(C)CN(CC(C)C)S(=O)(=O)N1CCC(C(=O)NCCc2ccc(Cl)cc2)CC1	inconclusive: 20.6 µM [cytotoxic, single point]	–
Cc1nc2cc(NC(=O)N3c4ccccc4CC3C)ccc2n1C (stereo not given)	inconclusive: 7.31 µM [cytotoxic, partial curve]	–
COc1cc(/C=N/NC(=O)c2nonc2C)ccc1O	inactive	–
N/C(=N\OC(=O)c1ccccc1)c1cccnc1	inconclusive: 20.6 µM [rising, single point]	–
Cn1cccc1C1Nc2ccccc2NC2=C1C(=O)CC(C)(C)C2 (stereo not given)	inactive	–
COc1ccc(NC(=O)CC2CC3CCC2C3)cc1S(=O)(=O)N1CCOCC1 (stereo not given)	active: 13 µM	–
O=C(NCCCN1CCCC1=O)c1ccccc1OCc1ccc(Cl)cc1Cl	inactive	–
O=S(=O)(c1cccc(COc2ccc(Cl)cc2Cl)c1)N1CCOCC1	inconclusive: 9.2 µM [cytotoxic, partial curve]	–
O=C(CCl)Nc1ccc(Sc2ccc(NC(=O)CCl)cc2)cc1	inconclusive: 2.59 µM [cytotoxic, full curve]	–
CCOC(=O)c1c(NC(=O)c2cc(-c3ccccc3OC)on2)sc(C)c1C	inactive	–
CC1=C(C(=O)Nc2cccnc2)C(c2ccc(F)cc2)n2nc(-c3cccc(C)c3)nc2N1 (stereo not given)	inactive	–
Cc1cc(NC(=O)CSc2nc3ccsc3c(=O)n2NC(=O)c2ccccc2)no1	inconclusive: 23.1 µM [cytotoxic, partial curve, poor fit]	–
Cc1cc(NC(=O)C2CCN(S(=O)(=O)c3c(C)noc3C)CC2)ccc1Br	inactive	–
O=C(CN1C(=O)COc2ccccc21)Nc1ccccc1F	inactive	–
O=[N+]([O-])c1ccc2c(c1)Cc1cc(F)ccc1-2	inconclusive: 25.9 µM [cytotoxic, single point]	–
COc1cccc(NCc2cc3c(C(C)(C)C)nn(-c4ccccc4)c3[nH]c2=O)c1	inconclusive: 23.1 µM [cytotoxic, single point]	–

Nothing new here: three of the compounds above.
SMILES	Potency	activity change, negative = cytotoxicity
Cc1ccc(C)c(C(=O)CN2C3=NCCCN3c3ccccc32)c1	inactive	–
COc1ccc(NS(=O)(=O)c2cccc(C(=O)Nc3ccccc3C(=O)O)c2)cc1	inconclusive: 23.1 µM [rising, single point]	–
O=C(COc1ccccc1Cl)Nc1ccc(OCc2cc(=O)n3ccsc3n2)cc1	inconclusive: 29.1 µM [rising, single point]	–

Additional compounds.

SMILES	Potency	activity change, negative = cytotoxicity
Cc1cccc(-c2cc(C(=O)NCc3ccccn3)c3ccccc3n2)c1	active: 5.8 µM	–
O=C(CN1CCSC1=NCc1ccccc1)c1ccc(Cl)c(Cl)c1	inconclusive: 32.6 µM [cytotoxic, single point]	–
COc1ccc(Nc2nc(C(=O)NCc3ccco3)cs2)cc1	active: 16.4 µM	–
CCOc1ccc(-c2cn3c(n2)sc2cc(C(=O)NCCCN4CCCCCC4)ccc23)cc1	inconclusive: 29.1 µM [cytotoxic, single point]	–
CCc1cc2c(=O)nc3n(c2s1)Cc1ccccc1/C3=C(/O)c1ccccc1Cl	inactive	–
CCOc1ccc(S(=O)(=O)N2CCOCC2)cc1NC(=O)c1ccccc1F	inconclusive: 4.11 µM [cytotoxic, full curve]	–
CCOC(=O)c1c(NC(=O)CS(=O)(=O)c2cn(CC)c3ccccc23)sc2c1CCCCC2	inactive	–
COc1cccc(CC2(CO)CCN(S(=O)(=O)c3ccc(OC)cc3OC)CC2)c1	inconclusive: 1.46 µM [cytotoxic, partial curve, poor fit]	–
C[C@H]1Oc2ccccc2C(=O)C1C(=O)c1ccccc1 (stereo not given in full)	inactive	–
COc1ccc(N=c2oc3ccc(OC)cc3cc2-c2nc3ccccc3[nH]2)cc1	inconclusive: 0.517 µM [cytotoxic, full curve, poor fit]	–
COc1ccc(-c2nc3nc(C)cc(C)n3c2Nc2c(C)cccc2C)cc1	inconclusive: 32.6 µM [cytotoxic, single point]	–
COc1ccccc1CNC(=O)C1(c2cccs2)CCOCC1	inactive	–
COC(CNC(=O)c1cnn2c(C)c(Cc3ccccc3)c(C)nc12)OC	inconclusive: 7.31 µM [cytotoxic, partial curve]	–
C=CCNC(=O)NC(=S)c1ccccc1	inconclusive: 2.59 µM [rising, partial curve, poor fit]	–
COC(=O)c1cccc(N2C(=O)c3ccccc3S2(=O)=O)c1	inactive	–
CN1CCC(N(C)C(=O)c2ccc(Cl)c(S(=O)(=O)N3CCOCC3)c2)CC1	inactive	–
O=C(CCc1ccccc1)NNC(=O)COc1ccccc1Cl	inactive	–
Cc1cccc(N/C(N)=N/c2nc(C)cc(C)n2)c1	inconclusive: 16.4 µM [cytotoxic, partial curve]	–
O=C(CSc1nccc(=O)[nH]1)NCc1ccc2c(c1)OCO2	–	inconclusive: -36.5% [cytotoxic]
Cc1ccc(/C=C2/NC(=O)[C@H](C)NC2=O)cc1	inactive	–
Cc1ccc(Cn2nnc3c(=O)n(CC(=O)N4CCCc5ccccc54)cnc32)cc1	inconclusive: 16.4 µM [cytotoxic, partial curve]	–
Cc1ccccc1CNC(=O)C(=O)NCCC1CCCCN1S(=O)(=O)c1ccccc1 (stereo not given)	active: 6.51 µM	–
CCOC(=O)C1=C(C)NC2=C(C(=O)c3ccccc32)C1c1ccc(O)cc1 (stereo not given)	inconclusive: 7.31 µM [cytotoxic, partial curve]	–
Cc1ccc(-n2nnnc2-c2ccccc2Br)cc1	inactive	–
COc1ccc([N+](=O)[O-])cc1NC(c1nnc(-c2ccccc2)o1)c1ccccc1F (stereo not given)	inactive	–

SMILES	Potency	activity change, negative = cytotoxicity
COC(=O)C1=C(C)NC(=S)NC1c1ccc(-c2ccccc2C(=O)OC)o1 (stereo not given)	inconclusive: 8.2 µM [cytotoxic, partial curve]	–
Cc1ccc(SCC(=O)OCC(=O)NCCCc2ccccc2)cc1	inconclusive: 29.1 µM [rising, single point]	–
CCN(CC)S(=O)(=O)c1ccc(Cl)c(NC(=O)COC(=O)c2c(C)noc2C)c1	inconclusive: 16.4 µM [cytotoxic, partial curve, poor fit]	–
CC(NC(=O)c1cc(S(=O)(=O)N(C)C)ccc1Cl)C1CC2CCC1C2 (stereo not given)	inconclusive: 9.2 µM [cytotoxic, partial curve]	–
Cc1cc(/C=C2\C=Cc3ccccc32)cc(C)c1N	inactive	–
O=C(c1ccccc1)c1sc(N2CCOCC2)nc1-c1ccccc1	inactive	–
CSc1nc(NCCOC(C)=O)c(C#N)c(-c2ccc(C(C)(C)C)cc2)n1	inactive	–
CCn1c(/C=C2/C(=O)N(C)c3ccccc32)nc2ccccc2c1=O	inconclusive: 23.1 µM [cytotoxic, partial curve, poor fit]	–
OCCC1CN(Cc2ccc(F)cc2)CCN1CCc1ccccc1 (stereo not given)	inconclusive: 29.1 µM [cytotoxic, single point]	–
CCc1ccc(N2CC(C(=O)OCC(=O)Nc3ccc(C#N)cc3)CC2=O)cc1 (stereo not given)	inconclusive: 29.1 µM [rising, single point]	–
N#Cc1ccc(OCC(=O)Nc2nc(-c3ccncc3)cs2)cc1	inconclusive: 6.51 µM [rising, full curve]	–
c1ccc(CNc2ncnc3sc4c(c23)CCCC4)nc1	active: 8.2 µM	–
NC(CS)C(=O)O (stereo not given)	inactive	–
Cc1ccc(C(=O)Nc2cccnc2)cc1S(=O)(=O)N1CCCCC1	inconclusive: 11.6 µM [cytotoxic, partial curve]	–
COc1cccc(-n2nnc3c(=O)n(Cc4ccc(Cl)cc4)cnc32)c1	active: 14.6 µM	–
Cc1ccc2nc(CN3CCN(C(=O)Nc4ccc(F)cc4)CC3)oc2c1	–	inconclusive: -21.9%
Cc1ccc2cc(CCNC(=O)c3ccc4c(c3)OCO4)c(=O)[nH]c2c1C	inconclusive: 18.4 µM [cytotoxic, single point]	–
O=C(Cn1c(=O)sc2ccccc21)NCCOc1ccccc1F	inconclusive: 11.6 µM [cytotoxic, partial curve, poor fit]	–
COc1cc(N2C(=O)c3ccccc3C2=O)c(Cl)cc1C(=O)OCC(=O)N(C)C	inactive	–
Cn1c(=O)c(C(=O)CCl)c(N)n(CC2CC2)c1=O	inactive	–
CCOC(=O)[C@@H]1[C@H]2COc3cc(OC)ccc3[C@@H]2N2C(=O)N(c3ccc(Cl)cc3)C(=O)[C@]12C	inconclusive: 10.3 µM [cytotoxic, partial curve]	–
CCOC(=O)C1=C[C@@H](c2ccccc2)N(S(=O)(=O)c2ccc(C)cc2)[C@H]1c1ccc(F)cc1	inconclusive: 29.1 µM [cytotoxic, single point]	–
Cc1cc(C(=O)N/N=C/c2ccc3ccccc3c2)n[nH]1	inactive	–
COc1nc(N/N=C/c2cc3c(cc2Br)OCO3)nc(N2CCOCC2)n1	inconclusive: 20.6 µM [cytotoxic, single point]	–
O=C(NN1C(=O)c2ccc(-c3ccc4c(c3)C(=O)N(NC(=O)c3cccnc3)C4=O)cc2C1=O)c1cccnc1	inconclusive: 0.651 µM [rising, full curve]	–
